Patent US6943196B1, “NF-κB inhibitor comprising phenylmethyl benzoquinone as the active ingredient” (Daiichi Suntory Pharma Co., Ltd., priority 1998, dated 2005)
At least one compound was matched to its structure with a doubt left.

Legend:
NF-κB [1] = assay: Gel shift assay of NF-κB activation in nuclear extract of CM-stimulated A549 cells; format: cell-based, human; conditions: compound 20 μg/ml added before CM stimulation, FIG. 2
NF-κB [2] = assay: Luciferase reporter assay in A549/NF-κBLuc cells stimulated with IL-1β or TNF-α; format: cell-based, human; conditions: A549/NF-κBLuc stimulated with IL-1β (1 ng/ml) or TNF-α (500 ng/ml) for 4 hours, FIG. 3
NO production = NO production of LPS-stimulated RAW264.7 cells (Griess' method); format: cell-based, mouse; conditions: LPS 10 μg/ml, 24 hours, FIG. 4A
From the text: (§1) When various cells are stimulated with LPS, NF-κB is activated which results in the expression and induction of proteins represented by […] and TNF-α, and thereby the cells start to produce NO and TNF-α.
The Griess' method utilizing a diazo reaction has been known as a method for indirectly knowing that a cell actually produces NO. In the Griess' method, the Griess' reagent in which naphthylethylenediamine and sulfanilic acid have been mixed is reacted with NO2 ion in the culture medium, and the color development thereof is measured by absorbance at 540 nm. The amount of NO accumulated in the cell culture medium after 24 hours was measured in this method with a result that the production of NO released from LPS (10 μg/ml)-stimulated RAW264.7 cells (ATCC, TIB-71) derived from macrophage is suppressed by the compound obtained in Example 4 (FIG. 4A).
(§2) The inhibitory activity of the compounds shown in the Examples is expressed as an IC50 value.

TNF-α production = TNF-α production of LPS-stimulated RAW264.7 cells (ELISA); format: cell-based, mouse; conditions: LPS 10 μg/ml, 4 hours, FIG. 4B
From the text: as §1, §2

Compound: COC1=C(OC)C(=O)C(Cc2ccc(CCC(=O)N3CCSCC3)cc2)=C(C)C1=O [Example 4, N-[3-[4-(5,6-dimethoxy-3-methyl-1,4-benzoquinon-2-ylmethyl)phenyl]propionyl]thiomorpholine]
- activation of NF-κB of A549 cells caused by CM stimulation (gel shift) (NF-κB [1]): inhibits the activation of NF-κB
- luciferase activity regulated by the activation of NF-κB (NF-κB [2]): suppresses luciferase activity
- production of NO released from LPS-stimulated RAW264.7 cells (NO production): suppressed
- production of TNF-α released from LPS-stimulated RAW264.7 cells (TNF-α production): inhibit the production of TNF-α
